PMC9380258, “Primary and secondary functions of HLA-E are determined by stability and conformation of the peptide-bound complexes” (Cell Reports, 2022)

System: HLA-E
Experiment: Blue native gel (BNG) analysis of HLA-E after peptide exchange
Design: species or system human

Sequence: SQAPLPCVL [BZLF1]
- blue native gel band form: Two band forms

Sequence: VMAPRTVLL [VL9, reference compound]
- blue native gel band form (HLA-E pre-refolded with UV-sensitive VL9 variant, 3 h on ice with 12 M excess test peptide, 4-16% Native-PAGE): single compact gel band

Read-outs that look alike come from different tables or passages of the source.
